Assays:
Assay type in all cases: cell-based
THLE-2 = experiment: CCK-8 cytotoxicity assay, THLE-2; details: Homo sapiens, 72 h treatment
Method: (§1) The cytotoxicity of compounds was determined by the CCK-8 assay (Cell Counting Kit-8, CK04, Dojindo Molecular Technologies, Kumamoto, Japan). Cell lines were plated at 10,000 cells/well in 96-well plates and incubated overnight to allow for adherence (5% CO2, 37 °C). […] Cells were placed back in the incubator for 72 h treatment. CCK-8 reagent was added, and plates were further incubated 1–4 h as directed by the supplier’s instructions. Optical density was measured using a Biotek Synergy H1 plate reader at 450 nm. Primary hepatocytes were plated at 30,000 cells or 50,000 cells/well and maintained according to the technical information bulletin provided by the supplier. Upon treatment, maintenance media were supplemented with 10% FBS and fresh test compound for all subsequent media changes, as directed.

SNU475 = experiment: CCK-8 cytotoxicity assay, SNU475; details: Homo sapiens, SNU-475, 72 h, 72 h treatment
Method: as §1

HepG2 = experiment: CCK-8 cytotoxicity assay, HepG2; details: Homo sapiens, HepG2, 72 h, 72 h treatment
Method: as §1

SNU423 = experiment: CCK-8 cytotoxicity assay, SNU423; details: Homo sapiens, SNU-423, 72 h treatment
Method: as §1

## CNC(=O)c1ccc(N2C(=S)N(c3ccc(C#N)c(C(F)(F)F)c3)C(=O)C2(C)C)cc1F [Enzalutamide, enzalutamide]
THLE-2
  IC50: > 30 µM
SNU475
  IC50: 14.9 µM
HepG2
  IC50: > 30 µM
SNU423
  IC50: 16.6 µM

— article PMC12346198 (Cancers, 2025)
